Experimental data from PubChem BioAssay AID248 (DTP/NCI, 2004).
The list does not hold the whole screen: it gathers tests that were run many times, whatever their T/C, doses with no T/C, and many T/C values between a quarter and a half above the control. Other doses and runs of a compound stand elsewhere. T/C: endpoint of the treated group in % of that of the vehicle group. Some entries give survivors of the animals treated and no T/C: the source files T/C as zero there, which appears to mark a toxic dose or a test without result, not a measured value. Some survivor counts are full or nearly so, which does not show that the dose was tolerated: the source hardly ever lists a survival T/C far under the control, and the zero likely stands for such cases as well. Survivors were counted at the toxicity check, usually on the fifth day, unless a day is given; later deaths do not show. Schedule codes are those of the source, read here as Q, the interval in days (D) or hours (H), X, the number of doses. Some doses were run more than once; the values are given in rising order. Some structures stand for samples that the source files as different forms (salt, stereo form or complex); doses refer to the form tested. Counts like (3×) stand for listed records that agree. Where survival is the endpoint, the PubChem record calls one and a half times the control and up active, and a quarter to a half above the control has no call in these data; cut-offs in other NCI protocols can differ. Some schedule codes hold Z or #, which are not explained here. Some T/C values are followed by the survivors on the day toxicity was checked, most often the fifth; without a count, all were alive then.

Tested on: L1210 leukemia ip in BDF1 mice, survival T/C
Experiment: NCI In Vivo Anticancer Drug Screen. Data for tumor model L1210 Leukemia (intraperitoneal) in B6D2F1 (BDF1) mice
Settings: higher T/C = longer survival
[1] = T/C endpoint: mean survival time, dose: 200.0 mg/kg/injection, schedule: Q04DX003 (ip), vehicle: saline with Tween-80
[2] = T/C endpoint: mean survival time, dose: 400.0 mg/kg/injection, schedule: Q04DX003 (ip), vehicle: saline with Tween-80
[3] = T/C endpoint: mean survival time, dose: 25.0 mg/kg/injection, schedule: Q01DX009 (ip), vehicle: Klucel (hydroxypropylcellulose) (HPC)
[4] = T/C endpoint: mean survival time, dose: 50.0 mg/kg/injection, schedule: Q01DX009 (ip), vehicle: Klucel (hydroxypropylcellulose) (HPC)
[5] = T/C endpoint: mean survival time, dose: 100.0 mg/kg/injection, schedule: Q01DX009 (ip), vehicle: Klucel (hydroxypropylcellulose) (HPC)
[6] = T/C endpoint: mean survival time, dose: 400.0 mg/kg/injection, schedule: Q04DX002 (ip), vehicle: Klucel (hydroxypropylcellulose) (HPC)
[7] = T/C endpoint: mean survival time, dose: 200.0 mg/kg/injection, schedule: Q01DX001 (ip), vehicle: saline
[8] = T/C endpoint: mean survival time, dose: 400.0 mg/kg/injection, schedule: Q01DX001 (ip), vehicle: saline
[9] = T/C endpoint: mean survival time, dose: 100.0 mg/kg/injection, schedule: Q04DX003 (ip), vehicle: saline with Tween-80
[10] = T/C endpoint: mean survival time, dose: 150.0 mg/kg/injection, schedule: Q01DX001 (ip), vehicle: saline
[11] = T/C endpoint: mean survival time, dose: 300.0 mg/kg/injection, schedule: Q01DX001 (ip), vehicle: saline
[12] = T/C endpoint: mean survival time, dose: 400.0 mg/kg/injection, schedule: Q01DX009 (ip), vehicle: saline with Tween-80
[13] = T/C endpoint: mean survival time, dose: 400.0 mg/kg/injection, schedule: Q01DX009 (ip), vehicle: gum acacia
[14] = T/C endpoint: mean survival time, dose: 40.0 mg/kg/injection, schedule: Q01DX009 (ip), vehicle: Klucel (hydroxypropylcellulose) (HPC)
[15] = T/C endpoint: mean survival time, dose: 40.0 mg/kg/injection, schedule: Q04DX003 (ip), vehicle: Klucel (hydroxypropylcellulose) (HPC)
[16] = T/C endpoint: mean survival time, dose: 75.0 mg/kg/injection, schedule: Q01DX001 (ip), vehicle: saline
[17] = T/C endpoint: mean survival time, dose: 100.0 mg/kg/injection, schedule: Q01DX009 (ip), vehicle: saline with Tween-80
[18] = T/C endpoint: mean survival time, dose: 200.0 mg/kg/injection, schedule: Q01DX009 (ip), vehicle: saline with Tween-80
[19] = T/C endpoint: mean survival time, dose: 400.0 mg/kg/injection, schedule: Q04DX002 (ip), vehicle: saline with Tween-80

NC(CNC(=O)OCc1ccccc1)=NCC(=O)O
survivor count [1]: 3 of 6 | survivor count [2]: 1 of 6

C#CC(=O)[O][Sn]([c]1ccccc1)([c]1ccccc1)[c]1ccccc1
survivor count [3]: 0 of 6 | survivor count [4]: 0 of 6 | survivor count [5]: 0 of 6 | survivor count (T/C endpoint: mean survival time, dose: 100.0 mg/kg/injection, schedule: Q04DX002 (ip), vehicle: Klucel (hydroxypropylcellulose) (HPC)): 0 of 3 | survivor count (T/C endpoint: mean survival time, dose: 200.0 mg/kg/injection, schedule: Q04DX002 (ip), vehicle: Klucel (hydroxypropylcellulose) (HPC)): 0 of 3 | survivor count [6]: 0 of 3

CCCCCN(C)/N=N/c1nc[nH]c1C(N)=O
T/C (T/C endpoint: mean survival time, dose: 25.0 mg/kg/injection, schedule: Q01DX009 (ip), vehicle: carboxymethylcellulose (CMC)): 130 % of control [5 of 6 alive] | T/C (T/C endpoint: mean survival time, dose: 25.0 mg/kg/injection, schedule: Q01DX Z (ip), vehicle: carboxymethylcellulose (CMC)): 130 % of control | T/C (T/C endpoint: mean survival time, dose: 42.0 mg/kg/injection, schedule: Q01DX015 (ip), vehicle: carboxymethylcellulose (CMC)): 128 % of control | T/C (T/C endpoint: mean survival time, dose: 50.0 mg/kg/injection, schedule: Q01DX009 (ip), vehicle: carboxymethylcellulose (CMC)): 139 % of control | T/C (T/C endpoint: mean survival time, dose: 50.0 mg/kg/injection, schedule: Q01DX Z (ip), vehicle: carboxymethylcellulose (CMC)): 127 % of control | T/C (T/C endpoint: mean survival time, dose: 72.0 mg/kg/injection, schedule: Q01DX015 (ip), vehicle: carboxymethylcellulose (CMC)): 128 % of control | survivor count (T/C endpoint: mean survival time, dose: 200.0 mg/kg/injection, schedule: Q01DX009 (ip), vehicle: carboxymethylcellulose (CMC)): 6 of 6 | survivor count (T/C endpoint: mean survival time, dose: 200.0 mg/kg/injection, schedule: Q01DX015 (ip), vehicle: carboxymethylcellulose (CMC)): 6 of 6 | T/C (T/C endpoint: median survival time, dose: 50.0 mg/kg/injection, schedule: Q01DX011 (ip), vehicle: steroid suspending solution): 137 % of control

COc1ccc(NCC(O)CN2CCCCC2)cc1 (centres undefined)
survivor count [7]: 2 of 6 | survivor count [8]: 0 of 6

COc1cccc(N=CC(=O)c2ccc(C)cc2)c1
survivor count (T/C endpoint: mean survival time, dose: 300.0 mg/kg/injection, schedule: Q04DX003 (ip), vehicle: Klucel (hydroxypropylcellulose) (HPC)): 4 of 6

O=C(O)CCC(=O)O.[Ag]
survivor count (T/C endpoint: mean survival time, dose: 6.25 mg/kg/injection, schedule: Q01DX009 (ip), vehicle: acetone): 6 of 6 | survivor count (T/C endpoint: mean survival time, dose: 12.5 mg/kg/injection, schedule: Q01DX009 (ip), vehicle: acetone): 6 of 6 | survivor count (T/C endpoint: mean survival time, dose: 50.0 mg/kg/injection, schedule: Q04DX003 (ip), vehicle: saline with Tween-80): 2 of 6 | survivor count [9]: 5 of 6 | survivor count [1]: 0 of 6 | survivor count [2]: 1 of 6

CC(=O)ON1C(=O)c2ccccc2C1=O
survivor count [8]: 1 of 4

CCCS(=O)[O-].CCCS(=O)[O-].[Zn+2]
survivor count [10]: 0 of 6 | survivor count [11]: 0 of 6

CCOc1ccc(Cl)cc1
survivor count [12]: 6 of 6

CC(=O)c1ccc(Br)cc1OCC(=O)O
survivor count [13]: 3 of 6

CC1(C)COC(=S)N1
survivor count (T/C endpoint: mean survival time, dose: 10.0 mg/kg/injection, schedule: Q04DX003 (ip), vehicle: Klucel (hydroxypropylcellulose) (HPC)): 6 of 6 | survivor count (T/C endpoint: mean survival time, dose: 20.0 mg/kg/injection, schedule: Q01DX009 (ip), vehicle: Klucel (hydroxypropylcellulose) (HPC)): 2 of 6 | survivor count (T/C endpoint: mean survival time, dose: 20.0 mg/kg/injection, schedule: Q01DX009 (ip), vehicle: saline): 1 of 10 | survivor count [3]: 6 of 6 | survivor count [14]: 0 of 6 | survivor count [15]: 0 of 6 | survivor count [4]: 0 of 6

Cc1cc2oc(=O)c(Cl)c(Cl)c2c(C)c1Cl
survivor count (T/C endpoint: mean survival time, dose: 40.0 mg/kg/injection, schedule: Q01DX001 (ip), vehicle: saline): 0 of 6 | survivor count [14]: 2 of 6 | survivor count [15]: 5 of 6 | survivor count [16]: 0 of 6 | survivor count [10]: 0 of 6 | survivor count [11]: 0 of 6

Cn1nc(SCc2ccccc2)c(=O)[nH]c1=O
survivor count [11]: 0 of 6

Cc1cccc(NC(=O)c2ccccc2)n1
survivor count [17]: 3 of 6 | survivor count [18]: 2 of 6 | survivor count [12]: 0 of 6

C/C1=C/CCCCCC1
survivor count [8]: 4 of 4

Cc1cccc(Cl)c1NC(=O)c1c(Cl)c(Cl)c(Cl)c(Cl)c1C(=O)O
survivor count [6]: 3 of 3

CCOc1cc(OCC)c(OCC)cc1C=C(C#N)C#N
survivor count (T/C endpoint: mean survival time, dose: 200.0 mg/kg/injection, schedule: Q01DX009 (ip), vehicle: Klucel (hydroxypropylcellulose) (HPC)): 6 of 6

C=CS(=O)(=O)CCCC
survivor count [12]: 0 of 3

CCCCNC(=O)c1ccccc1N
survivor count (T/C endpoint: mean survival time, dose: 200.0 mg/kg/injection, schedule: Q04DX003 (ip), vehicle: other): 3 of 3

COc1ccc(CC#N)cc1
survivor count (T/C endpoint: mean survival time, dose: 20.0 mg/kg/injection, schedule: Q04DX002 (ip), vehicle: Klucel (hydroxypropylcellulose) (HPC)): 3 of 3 | survivor count (T/C endpoint: mean survival time, dose: 40.0 mg/kg/injection, schedule: Q04DX002 (ip), vehicle: Klucel (hydroxypropylcellulose) (HPC)): 1 of 3 | survivor count (T/C endpoint: mean survival time, dose: 50.0 mg/kg/injection, schedule: Q01DX001 (ip), vehicle: saline): 2 of 4 | survivor count (T/C endpoint: mean survival time, dose: 100.0 mg/kg/injection, schedule: Q01DX001 (ip), vehicle: saline): 2 of 4 | survivor count [7]: 0 of 4 | survivor count [8]: 0 of 4

O=C(O)/C=C/Sc1ccc(Cl)cc1
survivor count [19]: 2 of 3

Clc1ccc2nc(CBr)cnc2c1
T/C [3]: 143 % of control | survivor count [3]: 6 of 6 | T/C [4]: 134 % of control | survivor count [4]: 3 of 6 | survivor count [5]: 3 of 6 | survivor count [17]: 1 of 6 | survivor count [1]: 4 of 6 | survivor count [2]: 1 of 6

Cc1cc(C)c(S(=O)(=O)O)cc1C
survivor count (T/C endpoint: mean survival time, dose: 200.0 mg/kg/injection, schedule: Q04DX003 (ip), vehicle: saline): 6 of 6 | survivor count (T/C endpoint: mean survival time, dose: 400.0 mg/kg/injection, schedule: Q04DX003 (ip), vehicle: saline): 0 of 6

[O-][n+]1ccc(CCc2ccccc2)cc1
survivor count [19]: 0 of 3

CCN(CC)CC#CCN(CC)CC
survivor count [18]: 2 of 6 | survivor count [2]: 0 of 6

CCCCCCC(C)CCCCCCCCNCCOC(=O)c1ccc(N)cc1 (centres undefined)
survivor count [11]: 3 of 6

C[N+]1(C)CCC(OC(=O)C(O)(c2ccccc2)C2CCCC2)C1 (centres undefined)
survivor count [1]: 0 of 3 | survivor count [2]: 0 of 3

Oc1ccccc1C1CCCCC1
survivor count (T/C endpoint: mean survival time, dose: 100.0 mg/kg/injection, schedule: Q01DX009 (ip), vehicle: gum acacia): 6 of 6 | survivor count (T/C endpoint: mean survival time, dose: 200.0 mg/kg/injection, schedule: Q01DX009 (ip), vehicle: gum acacia): 0 of 6 | survivor count [13]: 0 of 6

O=C1c2cccc3c([N+](=O)[O-])ccc(c23)C(=O)N1CC1CCCO1 (centres undefined)
survivor count (T/C endpoint: mean survival time, dose: 400.0 mg/kg/injection, schedule: Q01DX009 (ip), vehicle: Klucel (hydroxypropylcellulose) (HPC)): 6 of 6

c1cc2ccsc2cn1
survivor count [9]: 2 of 6 | survivor count [1]: 2 of 6 | survivor count [2]: 0 of 6

Nc1ccc2c(c1)C(=O)c1c(C(=O)O)cccc1-2
survivor count (T/C endpoint: mean survival time, dose: 300.0 mg/kg/injection, schedule: Q01DX001 (ip), vehicle: carboxymethylcellulose (CMC)): 0 of 6

C[N+]1(C2CCCCC2)CCCCC1
survivor count [16]: 1 of 6 and 3 of 6 | survivor count [10]: 0 of 6 (2×) and 1 of 6 | survivor count [11]: 0 of 6 (3×)

CNC(=S)Nc1c(C)cc(C)cc1C
survivor count (T/C endpoint: mean survival time, dose: 200.0 mg/kg/injection, schedule: Q04DX002 (ip), vehicle: saline with Tween-80): 6 of 6 | survivor count [19]: 1 of 6 and 1 of 3
